PubChem BioAssay AID1508597 – Cure First – 2020
Test: 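Knock-downs altering ovarian cancer cell survival with or without PARP inhibitor rucaparib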 (primary screen). System: human ovarian carcinoma lines grown from tumours: OCI-P5x (papillary serous) and OCI-C5x (clear cell). Reagents: siRNA pool against human genes, 1.25 pmol siRNA per well. Duration: 72 h or 96 h, depending on the cell culture. Challenge: rucaparib 20 µM (about IC30) or vehicle, present until read-out. Rucaparib or vehicle: Rucaparib. Cell line: OCI-P5x (serous). Detection: 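Luminescent ATP-based viability assay read 72 or 96 h after transfection, depending on culture, given as normalised percent viability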. Direction: viability, normalised: higher = more viable cells remaining. Active means: 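Active when normalised viability falls below 80 percent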. Meaning of the calls: active = viability under 80%; inactive = viability 80% or more.
Shown is a random part of the about 2,100 reagents, in one setting of the screen. 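Calls flag viability under 80% in either arm, not effects specific to rucaparib; the reference for percent is not stated.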 The record does not give: the 100% reference.

HMGB1 (GeneID 3146), technical replicate 1 scored viability, normalised (%) = 83.6; inactive.
HMGB1 (GeneID 3146), technical replicate 2 scored viability, normalised (%) = 96; inactive.
With HMGB1 (GeneID 3146), technical replicate 3 the deposit lists viability, normalised (%) = 85.7; inactive.
ASH2L (GeneID 9070), technical replicate 1 gave viability, normalised (%) = 53.6; active.
ASH2L (GeneID 9070), technical replicate 2 gave viability, normalised (%) = 73.5; active.
ASH2L (GeneID 9070), technical replicate 3 scored viability, normalised (%) = 82.2; inactive.

Called active, among the entries above:
ASH2L (GeneID 9070), technical replicate 1 — viability, normalised (%) = 53.6; outcome = active
ASH2L (GeneID 9070), technical replicate 2 — viability, normalised (%) = 73.5; outcome = active

The results go on:
CXXC4 (GeneID 80319), technical replicate 1 scored viability, normalised (%) = 72.6; active.
For CXXC4 (GeneID 80319), technical replicate 2, the entry reads viability, normalised (%) = 70.3; active.
CXXC4 (GeneID 80319), technical replicate 3 scored viability, normalised (%) = 72.7; active.
RPA2 (GeneID 6118), technical replicate 1 gave viability, normalised (%) = 67.7; active.
RPA2 (GeneID 6118), technical replicate 2 scored viability, normalised (%) = 74.7; active.
For RPA2 (GeneID 6118), technical replicate 3, the entry reads viability, normalised (%) = 75.1; active.
